These results are taken from article PMC7819943, “Rice protein-binding microarrays: a tool to detect cis-acting elements near promoter regions in rice”.

This is one part of the list.

This test has as its target T1, OsSMF1 (Oryza sativa, UniProt Q6ZLB0 1-436).
T1 sequence: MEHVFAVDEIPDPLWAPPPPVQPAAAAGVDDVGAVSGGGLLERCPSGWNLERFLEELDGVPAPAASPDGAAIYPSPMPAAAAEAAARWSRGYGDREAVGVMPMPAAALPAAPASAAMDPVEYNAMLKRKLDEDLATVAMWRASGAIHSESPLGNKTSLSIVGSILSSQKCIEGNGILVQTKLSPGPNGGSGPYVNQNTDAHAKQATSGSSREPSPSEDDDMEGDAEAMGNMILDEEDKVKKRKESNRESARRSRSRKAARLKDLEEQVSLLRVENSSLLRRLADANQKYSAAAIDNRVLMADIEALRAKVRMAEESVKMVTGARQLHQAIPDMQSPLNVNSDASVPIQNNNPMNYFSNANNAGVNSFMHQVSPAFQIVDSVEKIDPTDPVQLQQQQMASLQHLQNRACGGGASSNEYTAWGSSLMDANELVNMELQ
As to the kind of experiment: protein-binding microarray (RPBM); PBS, 2% BSA, 51.3 ng/ul salmon testes DNA, 50 uM zinc acetate, 200 nM TF, 25 C, 1 h; high values mean tight binding. The note with it: protein: recombinant; tags: N-terminal polyhistidine and DsRed monomer fusion (pET32a); chain copies: 2; label: CyDye5-dUTP incorporated in the synthesized complementary strand; 3' TTTTT single-stranded linker to array surface; dsDNA, one strand shown. Put shortly: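 Binding signal is defined as the fluorescence intensity of each feature in arbitrary units, read on an Axon 4000B scanner. Transcription factors with N-terminal polyhistidine and DsRed fusions came from E. coli BL21-CodonPlus and were purified on Ni–NTA. They were incubated at 200 nM for 1 h at 25 °C on a custom Agilent array that had been made double-stranded with Cy5-dUTP, with 50 µM zinc acetate present, and the array was washed.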
Consider “ATTGCGTGACAAATACCATGACTTAAACGACACGTCGACCCGGAGTCACCTAGTGCAG”, for which the binding signal was 8190 fluorescence intensity (a.u.).

Turning to “TGACGTGTGGGTCCCACATGCTGAGTCAGCTAGTTTGACTCGGAGTCACCTAGTGCAG”, the binding signal is 21100 fluorescence intensity (a.u.).

Regarding “CGGCGTGGCCGCTGCGTCACGGGCGACTGCGCCAGCGTGCCGGAGTCACCTAGTGCAG”, the binding signal is 5890 fluorescence intensity (a.u.).

As for “GGCGCGCGTCGCGTCGGCGGCGTGGCGTGTCGCCCAGCGTCGGAGTCACCTAGTGCAG”, the binding signal was 4590 fluorescence intensity (a.u.).

Take “GGGGCTAAAATTTTAGTCCATGTCACATCGGATGTTTGACCGGAGTCACCTAGTGCAG”: the binding signal was 3400 fluorescence intensity (a.u.).

“AATTGTGCTGTGGAGTTGTGATGTGGATTTGGGGTTCAATCGGAGTCACCTAGTGCAG”: the binding signal was 5440 fluorescence intensity (a.u.).

Consider “AAGAACAACCCAGCGTCGACTAATCCACTACACACCACGTCGGAGTCACCTAGTGCAG”, for which the binding signal is 3540 fluorescence intensity (a.u.).

With “GATTAGTCCACCATGGACCGTGTGTGCACGTGGAGAAGGACGGAGTCACCTAGTGCAG”, the binding signal was 3740 fluorescence intensity (a.u.).

For the sequence “TTAAATGTTGGTCGAAAAGTCAAATGGCGTCATACATTAACGGAGTCACCTAGTGCAG”, the binding signal was 4900 fluorescence intensity (a.u.).

With “TAGGATGCCACGTCATCTCTCCCTTCCCCTCTCTCTCTCCCGGAGTCACCTAGTGCAG”, the binding signal was 27000 fluorescence intensity (a.u.).

With “AGGGGAGGGATGTTTGACGCCTTTGATAATATTTCAAGTACGGAGTCACCTAGTGCAG”, the binding signal is 3280 fluorescence intensity (a.u.).

In the case of “CGCAACTAATCTTCGTCCTCTTCCCAGACAGCCTTGTTGTCGGAGTCACCTAGTGCAG”, the binding signal was 3140 fluorescence intensity (a.u.).

Regarding “GTCGTGGCAACTGGCAGTGTCGGCTGGTGACGGCGGCGGACGGAGTCACCTAGTGCAG”, the binding signal is 3440 fluorescence intensity (a.u.).

In the case of “CCCTCAATAATTAGCGGCTCAGCCGTGTCACCACTAGGGTCGGAGTCACCTAGTGCAG”, the binding signal was 6150 fluorescence intensity (a.u.).

Turning to “ACCCCACTAGCGAGCTCCTCCCCGCGCGTGGACGGCCGGTCGGAGTCACCTAGTGCAG”, the binding signal is 3300 fluorescence intensity (a.u.).

As for “GGGGTGATGTGCTAGGTAGGGACACGGCGGCTATAGGTGCCGGAGTCACCTAGTGCAG”, the binding signal was 6190 fluorescence intensity (a.u.).

Take “TAGGTTTTCGGGCCGGCCCATATTTTCTTAGGTGACAATGCGGAGTCACCTAGTGCAG”: the binding signal was 3240 fluorescence intensity (a.u.).

Consider “AGTGTCATATATATATATATATATATATATTAGTCTTTCACGGAGTCACCTAGTGCAG”, for which the binding signal was 3540 fluorescence intensity (a.u.).

Regarding “AGACCTCGCCACATCACCCATGCACGCATGGATGACGACACGGAGTCACCTAGTGCAG”, the binding signal was 10500 fluorescence intensity (a.u.).

As for “GACGCGGCGCAGTGCAACCAACAAACCGGGGCGGGCGGGGCGGAGTCACCTAGTGCAG”, the binding signal is 5240 fluorescence intensity (a.u.).

As to “CGCGCCAGCCGCCACCGCCGCCGCCGCACCCGCCACCCATCGGAGTCACCTAGTGCAG”, the binding signal is 3220 fluorescence intensity (a.u.).

With “TTTCTATTTGTCGACTAGGATGCCACATCAATCAAAACAACGGAGTCACCTAGTGCAG”, the binding signal was 4680 fluorescence intensity (a.u.).

On to “GTTCGCCGTGGATTTCTTTTCTTGCGTCAGTGATACTGATCGGAGTCACCTAGTGCAG”, for which the binding signal was 5040 fluorescence intensity (a.u.).

With “TATATCTAGTTTGCTCAGACCTACTGCTATTTCTTTCTGACGGAGTCACCTAGTGCAG”, the binding signal is 41200 fluorescence intensity (a.u.).

“CTGGGTGTGGGTGTGGGTCTGGGTCTGGGTGGAAGAGGAACGGAGTCACCTAGTGCAG”: the binding signal is 3420 fluorescence intensity (a.u.).

“GAATCTGAAACTACCTCTGTGCATAGGCCATCTCATCCTCCGGAGTCACCTAGTGCAG”: the binding signal was 4430 fluorescence intensity (a.u.).

As to “CGCCGCGTTGGTCGGCACGTCACACAAACACACACGTGCGCGGAGTCACCTAGTGCAG”, the binding signal is 7150 fluorescence intensity (a.u.).

For the sequence “CCACCTCGACGGCTGGCTGGCTGGCTCCACGTCGGACCCCCGGAGTCACCTAGTGCAG”, the binding signal was 12700 fluorescence intensity (a.u.).

For the sequence “CATGGATGAACAAGATGACATCAAGATCAAGTCCTCCAAGCGGAGTCACCTAGTGCAG”, the binding signal was 21800 fluorescence intensity (a.u.).

In the case of “CGAATGTGTTAGGCCCACCAACCATACTGGGCCCTAGCCCCGGAGTCACCTAGTGCAG”, the binding signal is 23300 fluorescence intensity (a.u.).

As for “TCTTTCTTTCTTTCTTTCTTGTGCGTCATCTCTATCACCGCGGAGTCACCTAGTGCAG”, the binding signal is 10700 fluorescence intensity (a.u.).

For the sequence “TACAGATCGATGCGACACTCTGACACGTTACGCTCTCTCTCGGAGTCACCTAGTGCAG”, the binding signal was 6440 fluorescence intensity (a.u.).

Consider “TTTGATGGTGGTTTTGGCTGACGTGGCACCTACATGGCATCGGAGTCACCTAGTGCAG”, for which the binding signal was 42900 fluorescence intensity (a.u.).

For “GGAGTTCTACGGCTGACAAGGAAGCCCACGTACATGTAGCCGGAGTCACCTAGTGCAG”, the binding signal is 4430 fluorescence intensity (a.u.).

For “CTCAAACTTGTTCGACTGTGTCATCCCGGTCCCTAAACTTCGGAGTCACCTAGTGCAG”, the binding signal was 4940 fluorescence intensity (a.u.).

Consider “GCCCAGCCCACACGGGGTAGCCCGACCGGCACGTGTCGGCCGGAGTCACCTAGTGCAG”, for which the binding signal was 3520 fluorescence intensity (a.u.).

Regarding “CCACGGCGAAAAGCTGCCAGGTGGGCCCACGGTCCCGCGGCGGAGTCACCTAGTGCAG”, the binding signal is 36200 fluorescence intensity (a.u.).

Take “CTCTCTTCTCTTCTCCACGTCATCATTTAGCCGATTTATACGGAGTCACCTAGTGCAG”: the binding signal was 20600 fluorescence intensity (a.u.).

As for “CGCCACGGGTTTTGCCTGCCGCAGGCGGTGGAATCGCGTGCGGAGTCACCTAGTGCAG”, the binding signal was 3430 fluorescence intensity (a.u.).

As to “GCGTTCGGTTGTTGGTGTTGGGAACTAAATCCGTCACGCACGGAGTCACCTAGTGCAG”, the binding signal is 3560 fluorescence intensity (a.u.).

Turning to “ATTTAGATCGAATCGAATCGAATCCCACGCGGCGCGGAGCCGGAGTCACCTAGTGCAG”, the binding signal is 4290 fluorescence intensity (a.u.).

For “GTTTAGGAAGCCTGGCAGCGACCGCGGTAGGGACTCGTCGCGGAGTCACCTAGTGCAG”, the binding signal was 4390 fluorescence intensity (a.u.).
